{"sequences": {"note": "By UniProt entry, the sequences of proteins in these tests, tags left out.", "UniProt P61264": "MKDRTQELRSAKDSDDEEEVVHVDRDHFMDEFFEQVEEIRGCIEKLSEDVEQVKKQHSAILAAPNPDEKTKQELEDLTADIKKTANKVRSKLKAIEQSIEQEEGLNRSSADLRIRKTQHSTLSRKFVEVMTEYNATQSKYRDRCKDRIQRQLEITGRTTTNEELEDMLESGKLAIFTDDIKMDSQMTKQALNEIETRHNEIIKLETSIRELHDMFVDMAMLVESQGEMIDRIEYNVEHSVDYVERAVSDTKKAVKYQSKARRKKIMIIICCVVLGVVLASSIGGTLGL"}, "source": "paper PMC10287671", "molecular_target": "T1, syntabulin (mouse (endogenous in hippocampus)) (UniProt Q8BHS8)", "T1 sequence": "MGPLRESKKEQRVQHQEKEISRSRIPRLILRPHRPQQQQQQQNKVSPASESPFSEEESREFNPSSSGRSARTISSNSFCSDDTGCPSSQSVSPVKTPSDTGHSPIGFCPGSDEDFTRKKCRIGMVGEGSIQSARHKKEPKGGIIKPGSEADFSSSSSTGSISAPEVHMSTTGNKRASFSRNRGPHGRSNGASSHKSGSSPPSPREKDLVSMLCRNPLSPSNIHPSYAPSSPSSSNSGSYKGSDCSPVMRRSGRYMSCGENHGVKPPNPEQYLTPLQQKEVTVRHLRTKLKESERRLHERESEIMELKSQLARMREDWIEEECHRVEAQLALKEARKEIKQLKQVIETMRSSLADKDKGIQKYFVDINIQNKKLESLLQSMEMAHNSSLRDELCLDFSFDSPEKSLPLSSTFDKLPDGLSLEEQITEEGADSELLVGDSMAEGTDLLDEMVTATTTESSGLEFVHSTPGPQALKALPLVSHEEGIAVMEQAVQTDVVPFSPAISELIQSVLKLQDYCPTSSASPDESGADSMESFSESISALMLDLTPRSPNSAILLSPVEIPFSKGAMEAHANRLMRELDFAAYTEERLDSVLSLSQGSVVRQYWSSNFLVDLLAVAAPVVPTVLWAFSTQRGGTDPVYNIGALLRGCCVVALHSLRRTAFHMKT", "test": "co-IP; mouse hippocampal lysates incubated at 4 °C for 2 h with antibodies (anti-syntabulin, anti-syntaxin 1A, anti-syntaxin 1B), protein A/G magnetic beads, Western blot; hippocampus of KA model mice, and epilepsy group against control group in the quantitative co-IP", "note": "Results are given in words; binding and its absence hold for the method and conditions named. In cells and extracts the contact can be indirect. Some binding calls cover weakened binding; strength is not graded here."}
{"substance": "syntaxin 1B (from UniProt P61264 1-288)", "values": [{"measurement": "binding", "value": "binds"}]}
